Library screen at single concentrations

Measurements from “University of Dundee, Small-Polar-MMV Screening Library” (2021), ChEMBL document CHEMBL3988442.

The filed quantity is “Percent Effect” (%).
How 0% and 100% were set is not recorded. Most values in the screen are low, and negative values occur.
Compounds were drawn at random from those tested, without regard to their results.
A dash means the value is not listed here; it may have been measured.

A: 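Assay of Toxoplasma gondii numbers, read through their beta-galactosidase reporter with a colour substrate. Compounds at 10 µM. The record gives no direction; the compounds picked for IC50 retests had high values, so higher reads as fewer parasites. About 67,000 compounds were tested under these conditions; 0.38% (about 260) showed 50% or more at least once.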
B: 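Whole-parasite assay of Trypanosoma brucei over 72 hours; the read-out is not stated. Tested at 30 µM. Direction is inferred from retests: higher values go with stronger inhibition. Values scatter widely below zero; nearly all retest evidence comes from the higher of the two concentrations used. Of about 64,000 compounds tested this way, about 940 (1.5%) reached 50% or more in at least one test.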
C: 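Cell assay of Leishmania donovani living inside macrophages; the read-out is not stated. Compounds at 30 µM. Direction is inferred from retests: higher values go with stronger inhibition. Of about 69,000 compounds tested this way, about 1,000 (1.5%) reached 50% or more in at least one test.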

structure,A,B,C
CCc1n[nH]c(=O)c(C(=O)N2CCSC(C)(C)C2)c1CC,17.04,-43.02,2.009
[H][C@@]12C[C@@H](c3nnc(C)[nH]3)O[C@]1([H])CN(S(=O)(=O)c1cccc(C)c1)C2,-3.659,3.835,21.23
O=C(c1ccc(Br)o1)N1CCN(Cc2ccc(F)cc2)CC1,11.36,-39.59,42.11
CC(C(=O)NCc1ccnc(N2CCOCC2)c1)n1cccn1 (configuration not stated),-25.2,1.244,13.47
COCc1ccccc1CNC(=O)CNc1cccc(Cl)c1OC,-1.277,-9.66,11.88
Cc1ccc(-c2ccnc(NCC3(N(C)C)CCOCC3)n2)c(C)n1,-11.24,-32.11,16.55
CCc1cnc(N)nc1NC(C)c1cnn(C)c1 (configuration not stated),4.153,-25.91,1.659
Cc1cc(C)n(C2CCCN(C(=O)CN(C)C3CC3)C2)n1 (configuration not stated),7.86,-37.18,29.72
Cn1cccc1C(=O)N1CCCN(CCCc2ccccc2)CC1,-1.409,-4.391,27.31
Cc1nc(CNC(=O)NCc2cccnc2N(C)C)cs1,5.061,-,20.46
CC(=O)N1CCC(c2cncc(N3CCCCCC3)n2)CC1,22.89,2.576,-8.315
c1ccc(CCN2CCN(c3ccc4nncn4n3)CC2)cc1,9.738,-,-2.063
Cc1cc(C)cc(CCC(=O)N2CCN(c3cc(C)nc(N)n3)CC2)c1,1.332,-66.54,24.2
O=C1OCCC1N1CCN(c2ccccn2)CC1 (configuration not stated),-11.13,-36.84,9.993
COc1ccc(NC(=O)c2ccoc2C)c(N2CCN(C(C)=O)CC2)n1,8.199,-39.76,13.45
COc1cccc(COCC(=O)N2CCCC2Cn2cccn2)c1 (configuration not stated),12.65,-,26.23
Nc1nnc(CCCn2nnc(-c3ccccc3F)n2)s1,15.59,-10.66,26.22
Cc1nc(S(=O)(=O)N2CCc3[nH]nc(CCC(C)C)c3C2)cn1C,5.689,-5.947,7.332
CCSc1ncccc1C(=O)NCc1ccc(N(C)C)cc1,17.67,-8.654,48.7
Cc1nn(C)c2ncc(CNCCc3ccccn3)cc12,1.723,0.1417,-39.37
CCc1cnc(N)nc1NC(C)c1ccc(C)c(C)c1 (configuration not stated),7.636,32.99,88.85
O=C(CN1CCc2cncnc2C1)NC(c1ccccc1)C1CC1 (configuration not stated),-9.707,5.925,-23.83
CCc1nc(CSc2nnc(N)n2C2CC2)no1,7.958,-10.47,18.88
COc1ccc(Cl)cc1CN(C)C(=O)CN1C(=O)CCC1C (configuration not stated),17.92,-65.85,-1.078
Cc1ncnc2c1CCN(Cc1ccc3c(c1)OCO3)CC2.O=C(O)C(F)(F)F,16.78,-13.05,15.31
CC(=O)NC1CCCN(c2nc3ccccc3cc2CO)C1 (configuration not stated),-11.11,-44.65,22.79
NS(=O)(=O)c1ccc(NCc2ccco2)c2ncccc12,-9.58,-42.04,2.031
CN(CCOc1ccccc1Cl)S(=O)(=O)N1CCOCC1,0.9512,-43.54,7.133
CCN(CC)CCn1ccnc1-c1cccc(O)c1,1.84,3.195,-17.64
Cc1ccc(C(=O)NCC(C)CN2CCCC2=O)c(=O)[nH]1 (configuration not stated),0.4858,-27.22,59.27
N#Cc1ccnc(N2CCN(C(=O)Cc3ccc4c(c3)CCO4)CC2)c1,-11.15,17.35,23.08
CC(=O)N1CCC(c2ncc(C(=O)Nc3ccc(F)cc3)c(C)n2)CC1,28.85,-15.54,-15.67
CCc1[nH]n(C)c(=N)c1-c1ccc2c(c1)OCO2,-3.338,-29.29,-21.19
Cc1cc(F)ccc1S(=O)(=O)NCc1cccc(C(=O)N2CCCC2)c1,-5.611,-3.513,26.68
CC(C)c1ncncc1C(=O)N1CCN(Cc2cscn2)CC1,5.062,0.4522,13.82
CC[C@@H]1N(C)CCC[C@]12CCC(=O)N2Cc1ccncc1.O=C(O)C(F)(F)F.O=C(O)C(F)(F)F,3.439,3.98,10.55
Cc1cccc2c1nc1n2[C@@H](CNC2CCCCC2)COC1,-2.605,-48.37,24.15
CC(C)N1CCC(N2CCOC3(CCCC3)C2)C1=O (configuration not stated),-5.829,-4.45,-9.918

The last 4 entries again:

structure,A,B,C
CC(C)c1ncncc1C(=O)N1CCN(Cc2cscn2)CC1,5.062,0.4522,13.82
CC[C@@H]1N(C)CCC[C@]12CCC(=O)N2Cc1ccncc1.O=C(O)C(F)(F)F.O=C(O)C(F)(F)F,3.439,3.98,10.55
Cc1cccc2c1nc1n2[C@@H](CNC2CCCCC2)COC1,-2.605,-48.37,24.15
CC(C)N1CCC(N2CCOC3(CCCC3)C2)C1=O (configuration not stated),-5.829,-4.45,-9.918